# Test results reported in publication PMC12040169 (PLOS Biology, 2025).
# This is one part of the list.
# Tested on: T1, CTL2-GFP (C. trachomatis L2/434/Bu, GFP-expressing)
# T1 construct: L2/434/Bu, GFP-expressing
# Parameters: species or system HeLa; Intracellular C. trachomatis growth in HeLa cells, bulk GFP fluorescence relative to DMSO
# Settings: bulk GFP, single well; 28.5 h, 10 µM; inhibitor
row,Structure (SMILES),% of control remaining [%]
1,COc1ccc(-c2c(C)nn3c(=O)c(Cc4ccccc4)c(C)[nH]c23)cc1 [CBK266951],165.564
2,CCc1c(C)nn(-c2ccccc2Br)c1-c1ccccc1 [CBK016757],94.3155
3,COc1ccccc1C(NC(=O)C1CCN(CCCN2C(=O)CC3CCCCC3C2=O)CC1)c1ccccn1 (centres unmarked) [CBK147940],120.15
4,Cn1c(SCC(=O)O)nnc1-c1cc(Br)ccc1O [CBK269150],84.8178
5,Cc1cc2c(cc1C)C(O)CC1(CCN(CC(=O)NC3CCCCC3)CC1)O2 (centres unmarked) [CBK286399],106.87
6,COc1ccc(CN2CC(C(=O)O)CC2=O)cc1 (centres unmarked) [CBK267242],133.67
7,O=C(Cc1cccc(F)c1)N1CCOCC1 [CBK058928],114.004
8,Cc1csc(NS(=O)(=O)CC(C)C)n1 [CBK021434],165.556
9,Cn1ccnc1CN1C[C@@H]2CCCN2C[C@@H]1Cc1ccccc1 [CBK283202],143.393
10,CN(C)S(=O)(=O)c1cccc(C(=O)N(Cc2ccc(F)cc2)Cc2ccco2)c1 [CBK267579],119.326
11,CCOC(=O)CCCCSc1c(CC)c(C)nc2ccccc12 [CBK153458T],101.216
12,O=C(NCCOc1ccc(F)cc1)c1cccc(-n2cccn2)c1 [CBK281596],128.184
13,CC(=O)N(CN1C(=O)CCC1=O)C(CC(C)C)C(=O)O (centres unmarked) [CBK286553],111.602
14,O=C(c1cccc(-c2ccc(F)cc2)c1)N1CC(O)C1 [CBK281499],115.195
15,O=C(CSc1nnc(Cc2ccccc2)o1)N1c2ccccc2Sc2ccccc21 [CBK268008],114.287
16,CCOC(=O)C1CCN(S(=O)(=O)c2ccccc2)CC1 [CBK051091],115.564
17,CCn1cc(S(=O)(=O)NC2(c3ccccc3)CCCC2)cn1 [CBK282767],128.709
18,CCCc1[nH]nc(O)c1CCc1ccccc1C(F)(F)F [CBK075081],82.2908
19,Cc1ccccc1-c1ccccc1CC1(C(=O)N(C)C)CCN(C(=O)C2CCCCC2)CC1 [CBK285718],98.2945
20,CCCCn1c(SC(C)C(N)=O)nc2cc(C(=O)OC)ccc2c1=O (centres unmarked) [CBK305877],113.223
21,COc1cccc(NCc2nnc(SCC(=O)O)n2C2CCCCC2)c1 [CBK297499],97.1473
22,CCn1cc(C(=O)NN)c(=O)c2cc(F)c(N3CCSCC3)cc21 [CBK307148],107.01
23,Nc1nnc(CSc2cccc3cccnc23)o1 [CBK021397],134.97

# Nothing new here: an excerpt of the list.
row,Structure (SMILES),% of control remaining [%]
12,O=C(NCCOc1ccc(F)cc1)c1cccc(-n2cccn2)c1 [CBK281596],128.184
13,CC(=O)N(CN1C(=O)CCC1=O)C(CC(C)C)C(=O)O (centres unmarked) [CBK286553],111.602
